Publication PMC12040169 (PLOS Biology, 2025)
Some of the results follow.

What follows are compounds tested on T1, CTL2-GFP (C. trachomatis L2/434/Bu, GFP-expressing). Conditions: bulk GFP, single well; 28.5 h, 10 µM; inhibitor.
T1 construct: L2/434/Bu, GFP-expressing
Design: species or system HeLa; Intracellular C. trachomatis growth in HeLa cells, bulk GFP fluorescence relative to DMSO

Row | Compound | % of control remaining
1 | CN(C)C(=O)CCCN1C(=O)CC2(C1=O)C(=O)N(C)c1ccc(F)cc12 (stereo not drawn) [CBK075380] | 97.7621%
2 | CC1CCCC(C)N1CC(O)COc1ccc(/N=C/c2ccccc2O)cc1 (stereo not drawn) [CBK261748] | 110.258%
3 | CC(C)(C)OC(=O)N1CCC(CNCc2cc(F)cc(F)c2)CC1 [CBK056715] | 75.2563%
4 | COc1ccc(C(NC(=O)c2ccc(Cn3cncn3)cc2)c2ccccc2)cc1 (stereo not drawn) [CBK285749] | 105.442%
5 | Nc1ccc2c(-c3ccsc3)ccnc2n1 [CBK067637] | 51.799%
6 | Fc1ccc2nc(Nc3nc(-c4ccncc4)cs3)sc2c1 [CBK287487] | 136.798%
7 | COc1cccc2cc(C3CN(C(=O)C(C)(C)NC(=O)OC(C)(C)C)CC3C(=O)O)oc12 (stereo not drawn) [CBK001348] | 82.7629%
8 | CC(Oc1ccccc1)C(=O)Nc1cccc(C#N)c1 (stereo not drawn) [CBK264062] | 123.779%
9 | O=CN1CCc2c([nH]c3ccccc23)C12CCN(CC1CC1)CC2 [CBK040315] | 168.817%
10 | NC(=O)C1(Cc2ccc(-c3ccccc3)cc2)CCN(C(=O)c2ccccc2)CC1 [CBK285789] | 124.768%
11 | O=C1CSC(c2ccc(F)cc2Cl)c2c[nH]nc2N1 (stereo not drawn) [CBK287935] | 122.239%
12 | O=C(O)c1ccccc1C(=O)NCCC1=CCCCC1 [CBK287113] | 107.062%
13 | CCN(CC)Cc1c(O)ccc2c(C#N)c(C)n(-c3ccccc3)c12 [CBK261527C] | 111.685%
14 | NNC(=O)c1c(NC(=O)c2ccccc2)sc2c1CCC2 [CBK262516] | 120.543%
15 | CN(C)CCNC(=O)c1cc(-c2cccnc2)nc2c(Cl)cccc12 [CBK267761] | 91.7611%
16 | CN(CC(=O)NCc1ccco1)C1CCCCC1 [CBK304471] | 143.006%
17 | O=C(Cc1nnn[nH]1)N1CCC(Cn2cncn2)(C2CCCCC2)CC1 [CBK136796] | 113.607%
18 | CC(NS(=O)(=O)N(C)C)c1ccccc1 (stereo not drawn) [CBK263819] | 111.6%
19 | CC(C)c1nc(CCN(C)C(=O)NCc2cc(-c3ccco3)on2)no1 [CBK307443] | 171.295%
20 | Cc1nc(C2CC(O)C2)cc(N(C)CCOc2cccc(Cl)c2)n1 (stereo not drawn) [CBK307691] | 141.089%
21 | COc1ccc2nc(Nc3nc4c(s3)C(=O)CC(C)(C)C4)sc2c1 [CBK287481] | 143.267%
22 | COc1cccc2cc(C(=O)C3=C(O)C(=O)N(CCN4CCOCC4)C3c3cccc(Cl)c3)oc12 (stereo not drawn) [CBK266599] | 125.153%
23 | CCOc1ccc(NC(=O)C2C3c4ccccc4C(c4ccccc43)C2C(=O)O)cc1 (stereo not drawn) [CBK261544] | 110.587%
24 | C=CCNc1nccnc1-c1ccc(CO)cc1 [CBK036870] | 111.704%
25 | CC(C)(C)OC(=O)Nc1ccc(Nc2cc(-c3ccc(F)c(F)c3)ncn2)cc1 [CBK091143] | 155.262%
26 | CC(=O)c1cc(C(=O)NC(c2ccccc2)c2cccnc2)cs1 (stereo not drawn) [CBK282514] | 87.9006%

Row | Compound | % of control remaining
27 | CNC(=S)N1CCN(c2nccnc2NS(=O)(=O)C2CC2)CC1 [CBK048905] | 123.682%
28 | Cc1ccccc1OCCCn1cncc1-c1cnn(C)c1 [CBK281762] | 100.767%
29 | CC(=O)NC[C@H]1CN(c2ccc(C3CNC3)c(F)c2)C(=O)O1 [CBK013035] | 141.26%
30 | CCCCCSc1c(C#N)nc(N2CCOCC2)c2c1CC(C)(C)OC2 [CBK021748] | 101.147%
31 | Cn1cc(C2c3ccccc3C(=O)N2CC(=O)O)c2ccccc21 (stereo not drawn) [CBK286555] | 106.711%
32 | O=C(NCC1CCCCC1)C1(Cc2cccc(-c3cccnc3)c2)CCOCC1 [CBK285607] | 109.733%
33 | O=C(Nc1cccc(Cl)c1)N(Cc1ccncc1)CC1CCCO1 (stereo not drawn) [CBK305362] | 100.316%
34 | COc1ccc(S(=O)(=O)N(C)CC(=O)Nc2cccc(F)c2)cc1Cl [CBK267882] | 127.584%
35 | Cc1nc(SCC(=O)NCC2CCCOC2)oc1C (stereo not drawn) [CBK282195] | 115.214%
36 | CC(C(=O)N1CCCC(COc2ccc(F)cc2)C1)n1ccnc1 (stereo not drawn) [CBK282027] | 140.074%
37 | Cc1cc(COc2ccnc(N3CCCN(CCCC#N)CC3)n2)no1 [CBK084144] | 95.039%
38 | CC(C)C(=O)Nc1cc2ccccc2c(-c2cccc(C(F)(F)F)c2)n1 [CBK085738] | 82.7411%
39 | CN(C(=O)CN1CCN(c2cc(-c3cccc4oc5ccccc5c34)ncn2)CC1)c1ccccc1 [CBK091130] | 186.344%
40 | Cc1ccccc1OCC(=O)Nc1ccc(C(=O)O)c(Cl)c1 [CBK287027] | 138.249%
41 | CN1CCN(S(=O)(=O)c2ccc(Oc3ccccc3)cc2)CC1 [CBK062430] | 113.945%
42 | CN1CCCN(c2cncc(-c3cccc(OC(F)(F)F)c3)n2)CC1 [CBK065949] | 134.818%
43 | CN1CCC[C@H]1C(=O)Nc1cc(-c2ccncc2)c[nH]c1=O [CBK116587] | 121.929%
44 | CSCC(=O)N1CC[C@H](NC(=O)NC2CCCCC2)[C@H]1C(=O)N1CCC[C@@H]1C(N)=O [CBK289265] | 93.4541%
45 | CN(c1ncccc1CNC(=O)c1c[nH]c(=O)c(Cl)c1)C1CCCCC1 [CBK307267] | 121.781%
46 | COc1cc(F)cc(OC2CCNCC2)c1NC(=O)c1c(-c2ccccc2)noc1C [CBK050350T] | 112.432%
47 | COC(=O)c1cc(NC(=O)c2cc(-c3ccc(C)o3)nc3ccccc23)cc(C(=O)OC)c1 [CBK265400] | 134.841%
48 | COc1ccc(NC(=O)N2CCCCC2c2cccnc2)cc1 (stereo not drawn) [CBK293947] | 163.511%
49 | O=S(=O)(c1ccc(C(F)(F)F)cc1Cl)N1CCCN(Cc2ccnc3ccccc23)CC1 [CBK062942] | 132.182%
50 | CCCCCCC1N=NC(c2ccc(F)cc2)=CN1O (stereo not drawn) [CBK019298] | 122.073%
51 | CCC(C)NC(=O)CN1CCN(Cn2nnc3ccccc3c2=O)CC1 (stereo not drawn) [CBK305032] | 96.3564%

Random excerpt: 4 entries already listed
Row | Compound | % of control remaining
49 | O=S(=O)(c1ccc(C(F)(F)F)cc1Cl)N1CCCN(Cc2ccnc3ccccc23)CC1 [CBK062942] | 132.182%
48 | COc1ccc(NC(=O)N2CCCCC2c2cccnc2)cc1 (stereo not drawn) [CBK293947] | 163.511%
28 | Cc1ccccc1OCCCn1cncc1-c1cnn(C)c1 [CBK281762] | 100.767%
27 | CNC(=S)N1CCN(c2nccnc2NS(=O)(=O)C2CC2)CC1 [CBK048905] | 123.682%
